Reference: US10959984B2, “Methods for treating cancer with RORγ inhibitors” (THE REGENTS OF THE UNIVERSITY OF CALIFORNIA, priority 2015, dated 2021)

Tested on: C4-2B cells
Assay: RNA-seq gene expression profiling
Assay type: cell-based, human
Conditions: 5 μM antagonist vs 20 μM ENZ, 48 h

SMILES: OC(c1ccc(-c2ccc(CN3CCN(Cc4ccncc4)CC3)cc2)c(F)c1)(C(F)(F)F)C(F)(F)F [SR2211, 2-Fluoro-4′-[[4-(4-pyridinylmethyl)-1-piperazinyl]methyl]-a,a-bis (trifluoromethyl)-[1,1′-biphenyl]-4-methanol]
- overlap of down-regulated genes with profile of anti-androgen ENZ: 41%

SMILES: CCN1C(=O)c2cccc3c(S(=O)(=O)Nc4ccc(OC)c(OC)c4)ccc1c23 [XY011, N-(3′,4′-dimethoxyphenyl)-1-ethyl-2-oxo-1,2-dihydrobenzo[cd]indole-6-sulfonamide]
- overlap of down-regulated genes with profile of anti-androgen ENZ: 38%
